Weaker means in comparison with the reference protein, sequence or condition of that experiment. Protein sequences can lack the tags named with them.

The text below walks through data of publication PMC3943411, “Modular assembly of designer PUF proteins for specific post-transcriptional regulation of endogenous RNA”.

The target in this data set is T1, PUF (S8) S863N,N899S,Q903E,C935N,N971C,H972Y,C1007N,N1043C,S1079N,E1083Q,N1122C (human) (UniProt Q14671).
T1 sequence (looked up, limits assumed): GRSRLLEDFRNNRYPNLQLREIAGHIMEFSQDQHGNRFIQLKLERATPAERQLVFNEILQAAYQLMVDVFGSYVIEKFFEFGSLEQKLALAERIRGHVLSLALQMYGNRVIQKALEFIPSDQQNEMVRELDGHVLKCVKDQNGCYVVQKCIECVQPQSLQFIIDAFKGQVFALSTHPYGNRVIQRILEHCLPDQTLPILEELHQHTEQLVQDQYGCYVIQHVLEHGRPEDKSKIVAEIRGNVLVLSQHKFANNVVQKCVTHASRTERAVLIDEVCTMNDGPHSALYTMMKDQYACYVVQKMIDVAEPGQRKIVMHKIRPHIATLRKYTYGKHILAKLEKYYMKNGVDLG
As to the kind of experiment: fluorescence polarization/anisotropy. Particulars: noncognate, 1 nM RNA, KD not determined, little binding at 300 nM protein; 20 mM Tris-HCl pH 7.5, 0.5 mM EDTA, 50 mM KCl, 0.1 mg/ml BSA; temperature not stated; protein corrected for active fraction (about 30%); KD mean ± SD, n = 3; recombinant protein; protein details: His-tag (pET28a); label: 5' 6-carboxyfluorescein.

Consider CCAGAAUUGUAUAUAUUCG [WT RNA (UGUAUAUA)], for which the binding result was “binds more weakly”.
